Measured values reported in paper PMC3710277.
Results are given in words; binding and its absence hold for the method and conditions named. Binding seen in cells or lysates may run through a third protein. Some entries that bind do so weakly or less than the wild type. Where a sequence is shown, tags or fusion partners need not be part of it.

By UniProt entry, the sequences of proteins in these tests, tags left out.
UniProt Q92949: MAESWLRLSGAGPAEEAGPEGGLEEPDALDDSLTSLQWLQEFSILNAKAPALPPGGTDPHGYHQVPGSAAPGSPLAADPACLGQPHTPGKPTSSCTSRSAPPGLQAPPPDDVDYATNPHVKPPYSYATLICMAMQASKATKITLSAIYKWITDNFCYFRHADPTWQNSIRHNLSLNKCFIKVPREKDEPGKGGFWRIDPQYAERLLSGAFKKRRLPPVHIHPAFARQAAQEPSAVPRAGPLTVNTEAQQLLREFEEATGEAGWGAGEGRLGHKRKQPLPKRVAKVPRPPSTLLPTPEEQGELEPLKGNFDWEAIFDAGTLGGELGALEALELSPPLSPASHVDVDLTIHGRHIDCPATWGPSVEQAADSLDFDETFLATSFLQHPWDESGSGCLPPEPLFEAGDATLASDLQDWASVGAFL

Target: T1, FLAG-tagged regulatory factor X3 (RFX3) (human) (UniProt P48380)
T1 sequence: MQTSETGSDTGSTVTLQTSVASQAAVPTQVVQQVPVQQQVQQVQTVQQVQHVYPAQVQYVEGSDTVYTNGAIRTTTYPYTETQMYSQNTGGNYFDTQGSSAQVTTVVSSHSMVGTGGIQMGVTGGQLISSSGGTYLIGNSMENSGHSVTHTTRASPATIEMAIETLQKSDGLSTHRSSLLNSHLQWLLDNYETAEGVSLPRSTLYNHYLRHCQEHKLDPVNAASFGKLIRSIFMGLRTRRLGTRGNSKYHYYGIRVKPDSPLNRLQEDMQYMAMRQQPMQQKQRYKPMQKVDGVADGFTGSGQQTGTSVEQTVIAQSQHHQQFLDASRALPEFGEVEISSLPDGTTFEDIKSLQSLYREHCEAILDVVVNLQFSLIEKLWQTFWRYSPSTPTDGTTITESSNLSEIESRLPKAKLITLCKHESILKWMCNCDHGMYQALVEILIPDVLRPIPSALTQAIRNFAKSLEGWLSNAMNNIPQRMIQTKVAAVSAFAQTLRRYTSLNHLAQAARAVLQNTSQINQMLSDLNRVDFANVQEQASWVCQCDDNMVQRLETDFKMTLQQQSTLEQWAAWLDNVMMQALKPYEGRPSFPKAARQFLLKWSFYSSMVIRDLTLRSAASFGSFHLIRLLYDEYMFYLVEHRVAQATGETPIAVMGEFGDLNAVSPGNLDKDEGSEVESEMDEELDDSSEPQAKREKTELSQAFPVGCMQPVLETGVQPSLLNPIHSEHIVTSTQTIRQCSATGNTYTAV
Experiment: co-IP; 293A cells co-transfected with PGK.FOXJ1 and CMV.FLAG-RFX3; lysates prepared after 48 hr, incubated overnight with Anti-FLAG M2 affinity gel, eluted with FLAG peptide; Western blot with antibodies for FOXJ1, FLAG and GAPDH

binding: binds
Substance: Forkhead box J1 (FOXJ1) (from UniProt Q92949 1-421)
